Results are given in words; binding and its absence hold for the method and conditions named. In cells and extracts the contact can be indirect. Some entries that bind do so weakly or less than the wild type. Tags and fused reporters may be left off the sequences shown.
T1: Elp1–GFP (GFP-tagged wild-type Elp1, largest subunit of the Elongator complex) (S. cerevisiae) (UniProt Q06706)
T1 sequence: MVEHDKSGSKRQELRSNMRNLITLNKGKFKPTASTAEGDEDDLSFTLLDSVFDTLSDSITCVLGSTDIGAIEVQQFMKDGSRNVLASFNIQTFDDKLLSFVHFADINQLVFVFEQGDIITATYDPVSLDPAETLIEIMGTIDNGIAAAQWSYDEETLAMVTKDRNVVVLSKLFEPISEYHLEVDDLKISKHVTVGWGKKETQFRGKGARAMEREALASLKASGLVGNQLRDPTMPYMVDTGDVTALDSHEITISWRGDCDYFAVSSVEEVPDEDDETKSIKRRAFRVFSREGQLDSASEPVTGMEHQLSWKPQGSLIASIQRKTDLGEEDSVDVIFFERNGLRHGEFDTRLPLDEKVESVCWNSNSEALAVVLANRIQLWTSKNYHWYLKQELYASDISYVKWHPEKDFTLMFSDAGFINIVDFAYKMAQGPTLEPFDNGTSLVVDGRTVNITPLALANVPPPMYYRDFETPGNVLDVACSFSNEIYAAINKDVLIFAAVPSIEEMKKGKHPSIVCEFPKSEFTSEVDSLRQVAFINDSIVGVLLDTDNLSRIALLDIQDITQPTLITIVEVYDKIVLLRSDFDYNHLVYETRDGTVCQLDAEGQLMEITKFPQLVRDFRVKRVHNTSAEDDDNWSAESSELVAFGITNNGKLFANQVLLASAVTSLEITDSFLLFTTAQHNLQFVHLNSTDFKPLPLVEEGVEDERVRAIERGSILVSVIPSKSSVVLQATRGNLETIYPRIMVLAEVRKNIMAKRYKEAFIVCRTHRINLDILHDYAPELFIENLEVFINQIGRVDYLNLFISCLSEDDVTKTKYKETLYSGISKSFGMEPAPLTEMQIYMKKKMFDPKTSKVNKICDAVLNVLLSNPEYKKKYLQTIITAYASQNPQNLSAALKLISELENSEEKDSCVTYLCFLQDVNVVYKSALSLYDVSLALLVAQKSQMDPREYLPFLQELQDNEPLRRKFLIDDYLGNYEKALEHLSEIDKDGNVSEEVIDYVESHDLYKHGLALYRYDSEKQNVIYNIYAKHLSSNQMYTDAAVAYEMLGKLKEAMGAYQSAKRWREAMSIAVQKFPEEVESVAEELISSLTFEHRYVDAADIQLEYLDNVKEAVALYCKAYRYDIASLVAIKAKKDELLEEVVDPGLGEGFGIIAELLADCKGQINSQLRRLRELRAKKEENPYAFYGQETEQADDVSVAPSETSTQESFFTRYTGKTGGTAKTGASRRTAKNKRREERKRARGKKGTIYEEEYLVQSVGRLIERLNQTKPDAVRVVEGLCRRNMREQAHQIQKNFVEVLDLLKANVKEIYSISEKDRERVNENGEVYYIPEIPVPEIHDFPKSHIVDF


How the values were obtained:
[1] = biological target: T1, Elp1–GFP (GFP-tagged wild-type Elp1, largest subunit of the Elongator complex) (S. cerevisiae); assay: co-IP; GFP–Trap beads precipitate genomic GFP-tagged Elp1 from lysate of yeast that also carry a plasmid copy of 6HA-tagged Elp1; anti-HA blot; done in strains with ELP5 and repeated in elp5Δ strains; 150 mM NaCl, 4°C
[2] = biological target: T1, Elp1–GFP (GFP-tagged wild-type Elp1, largest subunit of the Elongator complex) (S. cerevisiae); assay: co-IP; GFP–Trap beads precipitate the GFP-tagged protein from yeast lysate; HA-tagged partners found by anti-HA blot and measured by densitometry; lysis buffer 50 mM HEPES-KOH pH 7.5, 150 mM NaCl, 2 mM MgCl2, 0.1% Triton X-100; 4°C

Row | binding [1] | binding [2] | Binder
1 | binds | – | Elp1–6HA (6HA-tagged wild-type Elp1 from YCplac111–ELP1–6HA) (protein, UniProt Q06706 1-1349) MVEHDKSGSKRQELRSNMRNLITLNKGKFKPTASTAEGDEDDLSFTLLDSVFDTLSDSITCVLGSTDIGAIEVQQFMKDGSRNVLASFNIQTFDDKLLSFVHFADINQLVFVFEQGDIITATYDPVSLDPAETLIEIMGTIDNGIAAAQWSYDEETLAMVTKDRNVVVLSKLFEPISEYHLEVDDLKISKHVTVGWGKKETQFRGKGARAMEREALASLKASGLVGNQLRDPTMPYMVDTGDVTALDSHEITISWRGDCDYFAVSSVEEVPDEDDETKSIKRRAFRVFSREGQLDSASEPVTGMEHQLSWKPQGSLIASIQRKTDLGEEDSVDVIFFERNGLRHGEFDTRLPLDEKVESVCWNSNSEALAVVLANRIQLWTSKNYHWYLKQELYASDISYVKWHPEKDFTLMFSDAGFINIVDFAYKMAQGPTLEPFDNGTSLVVDGRTVNITPLALANVPPPMYYRDFETPGNVLDVACSFSNEIYAAINKDVLIFAAVPSIEEMKKGKHPSIVCEFPKSEFTSEVDSLRQVAFINDSIVGVLLDTDNLSRIALLDIQDITQPTLITIVEVYDKIVLLRSDFDYNHLVYETRDGTVCQLDAEGQLMEITKFPQLVRDFRVKRVHNTSAEDDDNWSAESSELVAFGITNNGKLFANQVLLASAVTSLEITDSFLLFTTAQHNLQFVHLNSTDFKPLPLVEEGVEDERVRAIERGSILVSVIPSKSSVVLQATRGNLETIYPRIMVLAEVRKNIMAKRYKEAFIVCRTHRINLDILHDYAPELFIENLEVFINQIGRVDYLNLFISCLSEDDVTKTKYKETLYSGISKSFGMEPAPLTEMQIYMKKKMFDPKTSKVNKICDAVLNVLLSNPEYKKKYLQTIITAYASQNPQNLSAALKLISELENSEEKDSCVTYLCFLQDVNVVYKSALSLYDVSLALLVAQKSQMDPREYLPFLQELQDNEPLRRKFLIDDYLGNYEKALEHLSEIDKDGNVSEEVIDYVESHDLYKHGLALYRYDSEKQNVIYNIYAKHLSSNQMYTDAAVAYEMLGKLKEAMGAYQSAKRWREAMSIAVQKFPEEVESVAEELISSLTFEHRYVDAADIQLEYLDNVKEAVALYCKAYRYDIASLVAIKAKKDELLEEVVDPGLGEGFGIIAELLADCKGQINSQLRRLRELRAKKEENPYAFYGQETEQADDVSVAPSETSTQESFFTRYTGKTGGTAKTGASRRTAKNKRREERKRARGKKGTIYEEEYLVQSVGRLIERLNQTKPDAVRVVEGLCRRNMREQAHQIQKNFVEVLDLLKANVKEIYSISEKDRERVNENGEVYYIPEIPVPEIHDFPKSHIVDF
2 | – | binds | Elp5-3HA (HA-tagged Elp5 subunit of Elongator) (protein, UniProt P38874 1-309) MASSSHNPVILLKRILSLTESSPFILCLDSIAQTSYKLIQEFVHQSKSKGNEYPIVYISFETVNKPSYCTQFIDATQMDFVHLVKQIISYLPAATATQAKKHMVIIDSLNYISTEYITRFLSEIASPHCTMVATYHKDIKDENRTVIPDWNNNYPDKLTLLQFMATTIVDIDVVLTGTLDTEEVSELLNEFRIPRGLNNDIFQLRLVNKRKSGRSLEYDFIVNSNTHEYELLSTTKQEEESSSNGLETPEMLQGLTTFNLGTSNKQKLAKDQVALPFLEAQSFGQGGAIVYEYEKDDDYDEEDPYEDPF
3 | – | binds | Elp3-3HA (HA-tagged Elp3 subunit of Elongator) (protein, UniProt Q02908 1-557) MARHGKGPKTNKKKLAPEKERFIQCCADITLELTDSLTSGTTREINLNGLITKYSKKYKLKQQPRLTDIINSIPDQYKKYLLPKLKAKPVRTASGIAVVAVMCKPHRCPHIAYTGNICVYCPGGPDSDFEYSTQSYTGYEPTSMRAIRARYDPYEQARGRVEQLKQLGHSIDKVEYVLMGGTFMSLPKEYREDFIVKLHNALSGFNGNDIDEAILYSQQSLTKCVGITIETRPDYCTQTHLDDMLKYGCTRLEIGVQSLYEDVARDTNRGHTVRSVCETFAVSKDAGYKVVSHMMPDLPNVGMERDIEQFKEYFENPDFRTDGLKIYPTLVIRGTGLYELWKTGRYKSYSANALVDLVARILALVPPWTRIYRVQRDIPMPLVTSGVDNGNLRELALARMKDLGTTCRDVRTREVGIQEVHHKVQPDQVELIRRDYYANGGWETFLSYEDPKKDILIGLLRLRKASKKYTYRKEFTSQRTSIVRELHVYGSVVPLHSRDPRKFQHQGFGTLLMEEAERIAKEEHGSEKISVISGVGVRNYYGKLGYELDGPYMSKRI
4 | – | binds | Kti12-3HA (HA-tagged Elongator accessory protein Kti12) (protein, UniProt P34253 1-313) MPLVLFTGYPCSGKTTLAKHLVQLLQSKIDATPSLSKYSITYHSDESLGIKHSDYITSQDERKLRSEIISAVKRDLSKNKIVIVDSLNYIKGFRYQLHCEVKNLSTTFCVIQTLCPPETIFEWNKTSNPNPWEPELLNQLIQRYEEPNSSNRWDSPLFAILTPQDNITDYIDDICKVVFQTSKSAKNSGHNDPLSKGLQKPNSATVLKPASQSNFIQVLDIETSKIIKTIMNHIKSLTSIGGVSNGTRVIVSEGITDINDDGCFFVDLPIGNVVTLAQLQRLKRQFINFNKLRDIDQDRIGPLFADYLNKNLN

Reference: article PMC4150532
